Test results published in patent US20120135519A1, “INDUCED DERIVATION OF SPECIFIC ENDODERM FROM hPS CELL-DERIVED DEFINITIVE ENDODERM” (Cellartis AB, priority 2009, published 2012).
For at least one compound, name, drawing or mass did not settle the structure.

System: PDX1 expression
Assay: FGF inhibition assays: PDX1 expression in FGF2-treated hPS cell-derived definitive endoderm
Assay type: cell-based, human
Conditions: inhibitor 12.5 μM, with FGF2 (64 ng/ml); real-time PCR, fold vs control at day eleven
Method: FGF receptor inhibition assays were performed by adding SU5402 (Calbiochem; […]), LY294002 (Cell Signalling technology; 12.5 μM) and U1026 (Cell Signalling technology; 10 μM) to the medium following DE induction at day three. Control cultures were treated with equal volume of the diluent DMSO. Fresh medium supplemented with appropriate inhibitor was added daily. Two to three samples were taken from separate wells at different time points (day 9-12) for mRNA analysis for each independent experiment.
Total RNA was extracted with GenElute Mammalian total RNA kit (Sigma-Aldrich). Total RNA concentrations were measured with the NanoDrop ND-1000 spectrophotometer (Nanodrop Technologies). Reverse transcription was performed with SuperScript III, according to the manufacturer's instructions, using 2.5 μM random hexamer and 2.5 μM oligo(dT) (Invitrogen). Real-time PCR measurements were performed on an ABI PRISM 7900HT Sequence Detector System (Applied Biosystems). 20 μl reactions containing 10 μl SuperMix-UDG w/ROX, 400 nM of each primer, 0.125× SYBR Green I (all reagents from Invitrogen) were used. Primer sequences are available as supplementary data (FIG. 6). Formation of expected PCR products was confirmed by agarose gel electrophoresis and melting curve analysis. Gene expression data was normalized against ACTB or RPL7 expression. […]

Q: Which PDX1 expression does the source give for `O=c1cc(N2CCOCC2)oc2c(-c3ccccc3)cccc12` [LY294002] here?
A: Its PDX1 expression is “remained unchanged”.
